Measurements published in patent US8445522B2, “Substituted 2-(4-pyridyl)benzoxazoles, and compositions thereof, for use in arthropod pest control” (Sumitomo Chemical Company, Limited, priority 2009, dated 2013).
Some entries share one result that the patent states for a list of compounds.

System: cotton aphids
Test: Test Example 8 and Comparative Test Example: 200 ppm diluent scattered on cucumber seedling inoculated with cotton aphids
Type: in vivo
Conditions: 200 ppm active ingredient, 10 ml scattered on cucumber seedling, counted five days after scattering

Cc1ccc2oc(-c3ccncc3)nc2c1 [active compound 2, 5-methyl-2-(pyridin-4-yl)-benzoxazole]
Control value: not less than 90%
